The experiment concerns the target GST-STAT3 (human) (UniProt P40763). Put plainly: GST pull-down on glutathione beads, immunoblot with anti-His or anti-MUC1-C. Background: Immunoblotting shows a protein as a band on a membrane.

The chains behind the UniProt entries cited, without tags or fusion partners. Where a name states a change or a piece, a line headed by the entry shows the natural chain unless it says otherwise.
UniProt P40763: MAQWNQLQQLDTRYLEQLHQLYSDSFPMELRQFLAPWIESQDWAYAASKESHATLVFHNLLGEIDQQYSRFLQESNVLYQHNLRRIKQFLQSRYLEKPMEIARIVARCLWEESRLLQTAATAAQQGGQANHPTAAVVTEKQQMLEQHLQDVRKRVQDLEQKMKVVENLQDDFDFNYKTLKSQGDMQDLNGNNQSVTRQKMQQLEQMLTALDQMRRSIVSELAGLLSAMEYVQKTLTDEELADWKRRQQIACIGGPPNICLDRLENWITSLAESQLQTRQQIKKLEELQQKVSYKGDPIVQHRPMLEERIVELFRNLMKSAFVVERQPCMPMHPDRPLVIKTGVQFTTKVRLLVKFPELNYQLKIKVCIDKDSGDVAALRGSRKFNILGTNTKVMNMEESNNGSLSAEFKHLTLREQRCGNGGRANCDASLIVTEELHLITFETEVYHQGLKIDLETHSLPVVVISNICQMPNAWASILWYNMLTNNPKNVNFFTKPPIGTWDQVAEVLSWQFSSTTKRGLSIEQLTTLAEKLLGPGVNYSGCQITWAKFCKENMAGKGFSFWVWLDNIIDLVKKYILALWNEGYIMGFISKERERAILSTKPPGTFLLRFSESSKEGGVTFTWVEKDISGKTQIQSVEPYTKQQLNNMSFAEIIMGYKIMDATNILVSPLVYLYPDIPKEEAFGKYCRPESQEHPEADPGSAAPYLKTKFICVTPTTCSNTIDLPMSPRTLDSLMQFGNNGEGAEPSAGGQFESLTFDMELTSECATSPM

No constants are given. Whether binding was seen depends on the method and setting. In cells and extracts the contact can be indirect. Some binding calls cover weakened binding; strength is not graded here.

B1: His-tagged MUC1-CD (MUC1 cytoplasmic domain) (other)
chain: CQCRRKNYGQLDIFPARDTYHPMSEYPTYHTHGRYVPPSSTDRSPYEKVSAGNGGSSLSYTNPAVAAASANL
notes: Purified recombinant protein; also called His-MUC1; not shown: His tag
For the molecule B1, the binding result was “binds”.

The values are drawn from patent publication US20090092600A1 (Dana-Farber, published 2009).
